Laboratory results: patent US20110008340A1
No constants are given. Whether binding was seen depends on the method and setting. Some results given as binding are weak or reduced against the parent protein; the word gives no strength.

Protein sequences, listed by entry. Tags and fused reporters are not part of them. Lines headed by an entry give the natural chain unless they say otherwise; changes in a name come on top. Residues count along the entry.
UniProt P00746, residues 26-253: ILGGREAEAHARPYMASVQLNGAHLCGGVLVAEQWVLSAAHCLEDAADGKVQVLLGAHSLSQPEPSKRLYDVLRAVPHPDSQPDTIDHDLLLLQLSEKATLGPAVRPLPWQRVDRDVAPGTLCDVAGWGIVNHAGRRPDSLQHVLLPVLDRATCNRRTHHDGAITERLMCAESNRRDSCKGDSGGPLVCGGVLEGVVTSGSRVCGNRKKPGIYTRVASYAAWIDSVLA
UniProt P27918: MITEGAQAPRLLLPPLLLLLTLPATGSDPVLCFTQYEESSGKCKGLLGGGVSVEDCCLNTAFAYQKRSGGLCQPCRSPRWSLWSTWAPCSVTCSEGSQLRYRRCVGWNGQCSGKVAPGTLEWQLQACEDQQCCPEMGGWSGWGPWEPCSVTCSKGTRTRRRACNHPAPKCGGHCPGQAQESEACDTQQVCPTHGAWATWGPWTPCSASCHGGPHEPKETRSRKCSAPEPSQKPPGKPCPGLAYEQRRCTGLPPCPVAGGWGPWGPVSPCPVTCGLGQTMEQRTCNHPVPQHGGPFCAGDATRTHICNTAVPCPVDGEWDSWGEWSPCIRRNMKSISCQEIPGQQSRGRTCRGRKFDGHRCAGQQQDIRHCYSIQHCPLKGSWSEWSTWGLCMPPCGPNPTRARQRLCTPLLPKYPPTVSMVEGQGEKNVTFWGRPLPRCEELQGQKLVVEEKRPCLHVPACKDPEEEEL

Molecular target: factor D (UniProt P00746)
Test: direct binding experiments

binding: binds
Substance: human properdin (from UniProt P27918 29-469)
